Laboratory results from EP4778539A1.
No constants are given. Whether binding was seen depends on the method and setting. Binding calls can cover weak binding; strength is not graded here.

Target: CAPRIN-1 protein
Assay: ELISA

Row | Binder | binding
1 | humanized antibody complex #39 (antibody, human IgG1, V domains shown) VH: EVQLVESGGGLVQPGGSLRLSCAASGFSLSSHSLGWVRQAPGKGLEWIGDIRSGGSAYYANWAKGRFTISRDNSKNTLYLQMNSLRAEDTAVYFCTRTNGPSDLTNRLDLWGQGTLVTVSS VL: EIVLTQSPSSLSASVGDRVTINCQASQSLYNNENLAWFQQKPGKVPKRLIYGASTLASGVSSRFSGSGSGTEFTLTISNLQPEDFATYYCLGEFSCGSADCFAFGGGTKVEIK | binds
2 | humanized antibody complex #37 (antibody, human IgG1, V domains shown) VH: EVQLVESGGGLVQPGGSLRLSCAASGFSLSSHSLGWVRQAPGKGLEWIGDIRSGGSAYYANWAKGRFTISRDNSKNTLYLQMNSLRAEDTAVYFCTRTNGPSDLTNRLDLWGQGTLVTVSS VL: QVLTQSPSSLSASVGDRVTINCQASQSLYNNENLAWFQQKPGKVPKRLIYGASTLASGVSSRFSGSGSGTEFTLTISSLQCEDFAIYYCLGEFSCGSADCFAFGGGTKVEIK | binds
3 | Fab complex #36 (Fab, V domains shown) VH: EVQLVESGGGLVQPGGSLRLSCAASGFSLSSHSLGWVRQAPGKGLEWIGDIRSGGSAYYANWAKGRFTISRDNSKNTLYLQMNSLRAEDTAVYYCTRTNGPSDLTNRLDLWGQGTLVTVSS VL: QVLTQSPSSLSASVGDRVTINCQASQSLYNNENLAWFQQKPGKVPKRLIYGASTLASGVSSRFSGSGSGTEFTLTISSLQCEDFAIYYCLGEFSCGSADCFAFGGGTKVEIK | binds
4 | Fab complex #37 (Fab, V domains shown) VH: EVQLVESGGGLVQPGGSLRLSCAASGFSLSSHSLGWVRQAPGKGLEWIGDIRSGGSAYYANWAKGRFTISRDNSKNTLYLQMNSLRAEDTAVYFCTRTNGPSDLTNRLDLWGQGTLVTVSS VL: QVLTQSPSSLSASVGDRVTINCQASQSLYNNENLAWFQQKPGKVPKRLIYGASTLASGVSSRFSGSGSGTEFTLTISSLQCEDFAIYYCLGEFSCGSADCFAFGGGTKVEIK | binds
5 | Fab complex #40 (Fab, V domains shown) VH: EVQLVESGGGLVQPGGSLRLSCAASGFSLSSHSLGWVRQAPGKGLEWIGDIRSGGSAYYANWAKGRFTISRDNSKNTLYLQMNSLRAEDTAVYYCTRTNGPSDLTNRLDLWGQGTLVTVSS VL: EIVLTQSPSSLSASVGDRVTINCQASQSLYNNENLAWFQQKPGKVPKRLIYGASTLASGVSSRFSGSGSGTEFTLTISNLQPEDFATYYCLGEFSCGSADCFAFGGGTKVEIK | binds
6 | humanized antibody complex #30 (antibody, human IgG1, V domains shown) VH: GPDLVKPGASVKISCKASGYSFTAYYMHWVKQSHGKSLEWIGRVNPNNGGTTYNQKFKGKAILTVDKSSSTAYMELRSLTFEDSAVYYCARRIYYGYFDYWGQGTTVTVSS VL: AFFAVSLGQRATISCKASQSVDYDGDSYMNWYQQKPGQPPKLLIYVASNLESGVPARFSGSGSGTDFTLNIHPVEEEDAATYYCQQSNEDPYTFGGGTKLEIKQ | binds
7 | humanized antibody complex #9 (antibody, human IgG1, V domains shown) VH: AVTLDESGGGLQTPGGALSLVCKASGFTFSGYDMLWVRQAPGKGLEWVAGIGSTGGGTDYGAAVKGRATISRDNGQSTVRLQLNNLRAEDTATYYCAKVAGGCNSGYCRDSPGSIDAWGHGTEVIVS VL: AVTQQPASVSANPGETVKITCSGGGSRNYYGWYQQKSPGSVPVTVIYYDDQRPSNIPSRFSGALSGSTSTLTITGVQADDEAVYFCGSADSNTYEGSFGAGTTLTVL | binds
8 | Fab complex #42 (Fab, V domains shown) VH: AVTLDESGGGLQTPGGALSLVCKASGFTFSGYDMLWVRQAPGKGLEWVAGIGSTGGGTDYGAAVKGRATISRDNGQSTVRLQLNNLRAEDTATYYCAKVAGGCNSGYCRDSPGSIDAWGHGTEVIVS VL: AVTQQPASVSANPGETVKITCSGGGSRNYYGWYQQKSPGSVPVTVIYYDDQRPSNIPSRFSGALSGSTSTLTITGVQADDEAVYFCGSADSNTYEGSFGAGTTLTVL | binds
9 | Fab complex #46 (Fab, V domains shown) VH: GAELVRSGASVKMSCKASGYSFTDYNMYWVKQTPGQGLEWIGYIYPGNGGTNYNQKFKGKATLTADTSSSTAYMQISSLTSEDSAVYFCARDYDDGGYAMDYWGQGTTVTVSS VL: DIQMTQSPASLSASVGETVTITCRASGNIHNYLTWYQQKQGKSPQLLVYNAKTLADGVPSRFSGSGSGTQYSLKINRLQPEDFGSYYCQHFWNIPWTFGGGTKLNSR | binds

The remaining lines, values ahead:

Row | binding | Binder
10 | binds | humanized antibody complex #36 (antibody, human IgG1, V domains shown) VH: EVQLVESGGGLVQPGGSLRLSCAASGFSLSSHSLGWVRQAPGKGLEWIGDIRSGGSAYYANWAKGRFTISRDNSKNTLYLQMNSLRAEDTAVYYCTRTNGPSDLTNRLDLWGQGTLVTVSS VL: QVLTQSPSSLSASVGDRVTINCQASQSLYNNENLAWFQQKPGKVPKRLIYGASTLASGVSSRFSGSGSGTEFTLTISSLQCEDFAIYYCLGEFSCGSADCFAFGGGTKVEIK
11 | binds | humanized antibody complex #38 (antibody, human IgG1, V domains shown) VH: EVQLVESGGGLVQPGGSLRLSCAASGFSLSSHSLGWVRQAPGKGLEWIGDIRSGGSAYYANWAKGRFTISRDNSKNTLYLQMNSLRAEDTAVYYCTRTNGPSDLTNRLDLWGQGTLVTVSS VL: EQVLTQSPSSLSASVGDRVTINCQASQSLYNNENLAWFQQKPGKVPKRLIYGASTLASGVSSRFSGSGSGTEFTLTISNLQPEDFAIYYCLGEFSCGSADCFAFGGGTKVEIK
12 | binds | Fab complex #38 (Fab, V domains shown) VH: EVQLVESGGGLVQPGGSLRLSCAASGFSLSSHSLGWVRQAPGKGLEWIGDIRSGGSAYYANWAKGRFTISRDNSKNTLYLQMNSLRAEDTAVYYCTRTNGPSDLTNRLDLWGQGTLVTVSS VL: EQVLTQSPSSLSASVGDRVTINCQASQSLYNNENLAWFQQKPGKVPKRLIYGASTLASGVSSRFSGSGSGTEFTLTISNLQPEDFAIYYCLGEFSCGSADCFAFGGGTKVEIK
13 | binds | Fab complex #39 (Fab, V domains shown) VH: EVQLVESGGGLVQPGGSLRLSCAASGFSLSSHSLGWVRQAPGKGLEWIGDIRSGGSAYYANWAKGRFTISRDNSKNTLYLQMNSLRAEDTAVYFCTRTNGPSDLTNRLDLWGQGTLVTVSS VL: EIVLTQSPSSLSASVGDRVTINCQASQSLYNNENLAWFQQKPGKVPKRLIYGASTLASGVSSRFSGSGSGTEFTLTISNLQPEDFATYYCLGEFSCGSADCFAFGGGTKVEIK
14 | binds | Fab complex #41 (Fab, V domains shown) VH: EVQLVESGGGLVQPGGSLRLSCAASGFSLSSHSLGWVRQAPGKGLEWIGDIRSGGSAYYANWAKGRFTISRDNSKNTLYLQMNSLRAEDTAVYFCTRTNGPSDLTNRLDLWGQGTLVTVSS VL: EQVLTQSPSSLSASVGDRVTINCQASQSLYNNENLAWFQQKPGKVPKRLIYGASTLASGVSSRFSGSGSGTEFTLTISNLQPEDFAIYYCLGEFSCGSADCFAFGGGTKVEIK
15 | binds | humanized antibody complex #40 (antibody, human IgG1, V domains shown) VH: EVQLVESGGGLVQPGGSLRLSCAASGFSLSSHSLGWVRQAPGKGLEWIGDIRSGGSAYYANWAKGRFTISRDNSKNTLYLQMNSLRAEDTAVYYCTRTNGPSDLTNRLDLWGQGTLVTVSS VL: EIVLTQSPSSLSASVGDRVTINCQASQSLYNNENLAWFQQKPGKVPKRLIYGASTLASGVSSRFSGSGSGTEFTLTISNLQPEDFATYYCLGEFSCGSADCFAFGGGTKVEIK
16 | binds | Fab complex #30 (Fab, V domains shown) VH: GPDLVKPGASVKISCKASGYSFTAYYMHWVKQSHGKSLEWIGRVNPNNGGTTYNQKFKGKAILTVDKSSSTAYMELRSLTFEDSAVYYCARRIYYGYFDYWGQGTTVTVSS VL: AFFAVSLGQRATISCKASQSVDYDGDSYMNWYQQKPGQPPKLLIYVASNLESGVPARFSGSGSGTDFTLNIHPVEEEDAATYYCQQSNEDPYTFGGGTKLEIKQ
17 | binds | humanized antibody complex #14 (antibody, human IgG1, V domains shown) VH: DAELVKPGASVKISCKASGYTFTDHSIHWVQQKPEQGLEWIGYISPGNGNIKYNEKFKGKATLTADKSSSTAYMQLNSLTSEDSAVYFCKRSLGRGGPYYFDYWGQGTTVTVSS VL: DIVLTQAAPSLPVTPGESVSISCRSSKSLLHSNGNTYLYWFLQRPGQSPQLLIYRMSNLASGVPDRFSGSGSGTAFTLRISRVEAEDVGVYYCMQHREYPVTFGSGPN
18 | binds | Fab complex #47 (Fab, V domains shown) VH: DAELVKPGASVKISCKASGYTFTDHSIHWVQQKPEQGLEWIGYISPGNGNIKYNEKFKGKATLTADKSSSTAYMQLNSLTSEDSAVYFCKRSLGRGGPYYFDYWGQGTTVTVSS VL: DIVLTQAAPSLPVTPGESVSISCRSSKSLLHSNGNTYLYWFLQRPGQSPQLLIYRMSNLASGVPDRFSGSGSGTAFTLRISRVEAEDVGVYYCMQHREYPVTFGSGPN
19 | binds | Fab complex #14 (Fab, V domains shown) VH: DAELVKPGASVKISCKASGYTFTDHSIHWVQQKPEQGLEWIGYISPGNGNIKYNEKFKGKATLTADKSSSTAYMQLNSLTSEDSAVYFCKRSLGRGGPYYFDYWGQGTTVTVSS VL: DIVLTQAAPSLPVTPGESVSISCRSSKSLLHSNGNTYLYWFLQRPGQSPQLLIYRMSNLASGVPDRFSGSGSGTAFTLRISRVEAEDVGVYYCMQHREYPVTFGSGPN
20 | binds | Fab complex #9 (Fab, V domains shown) VH: AVTLDESGGGLQTPGGALSLVCKASGFTFSGYDMLWVRQAPGKGLEWVAGIGSTGGGTDYGAAVKGRATISRDNGQSTVRLQLNNLRAEDTATYYCAKVAGGCNSGYCRDSPGSIDAWGHGTEVIVS VL: AVTQQPASVSANPGETVKITCSGGGSRNYYGWYQQKSPGSVPVTVIYYDDQRPSNIPSRFSGALSGSTSTLTITGVQADDEAVYFCGSADSNTYEGSFGAGTTLTVL
21 | binds | humanized antibody complex #13 (antibody, human IgG1, V domains shown) VH: GAELVRSGASVKMSCKASGYSFTDYNMYWVKQTPGQGLEWIGYIYPGNGGTNYNQKFKGKATLTADTSSSTAYMQISSLTSEDSAVYFCARDYDDGGYAMDYWGQGTTVTVSS VL: DIQMTQSPASLSASVGETVTITCRASGNIHNYLTWYQQKQGKSPQLLVYNAKTLADGVPSRFSGSGSGTQYSLKINRLQPEDFGSYYCQHFWNIPWTFGGGTKLNSR
22 | binds | Fab complex #13 (Fab, V domains shown) VH: GAELVRSGASVKMSCKASGYSFTDYNMYWVKQTPGQGLEWIGYIYPGNGGTNYNQKFKGKATLTADTSSSTAYMQISSLTSEDSAVYFCARDYDDGGYAMDYWGQGTTVTVSS VL: DIQMTQSPASLSASVGETVTITCRASGNIHNYLTWYQQKQGKSPQLLVYNAKTLADGVPSRFSGSGSGTQYSLKINRLQPEDFGSYYCQHFWNIPWTFGGGTKLNSR
